# Results are given in words; binding and its absence hold for the method and conditions named. In cells and extracts the contact can be indirect. Where a sequence is shown, tags or fusion partners need not be part of it.
# How the values were obtained:
# [1] = molecular target: T1, FLAG-hMCC (human MCC isoform 1 with an N-terminal FLAG tag) (human) (UniProt P23508); experiment: co-IP; whole cell CHAPS lysates of transduced 8226 cells; anti-FLAG-agarose beads (FLAG-hMCC) or streptavidin-sepharose beads (hMCC-SBP-6×His); 5 washes in 0.5% CHAPS, 20 mM Tris pH 7.4, 150 mM NaCl; immunoblot
# T1 sequence: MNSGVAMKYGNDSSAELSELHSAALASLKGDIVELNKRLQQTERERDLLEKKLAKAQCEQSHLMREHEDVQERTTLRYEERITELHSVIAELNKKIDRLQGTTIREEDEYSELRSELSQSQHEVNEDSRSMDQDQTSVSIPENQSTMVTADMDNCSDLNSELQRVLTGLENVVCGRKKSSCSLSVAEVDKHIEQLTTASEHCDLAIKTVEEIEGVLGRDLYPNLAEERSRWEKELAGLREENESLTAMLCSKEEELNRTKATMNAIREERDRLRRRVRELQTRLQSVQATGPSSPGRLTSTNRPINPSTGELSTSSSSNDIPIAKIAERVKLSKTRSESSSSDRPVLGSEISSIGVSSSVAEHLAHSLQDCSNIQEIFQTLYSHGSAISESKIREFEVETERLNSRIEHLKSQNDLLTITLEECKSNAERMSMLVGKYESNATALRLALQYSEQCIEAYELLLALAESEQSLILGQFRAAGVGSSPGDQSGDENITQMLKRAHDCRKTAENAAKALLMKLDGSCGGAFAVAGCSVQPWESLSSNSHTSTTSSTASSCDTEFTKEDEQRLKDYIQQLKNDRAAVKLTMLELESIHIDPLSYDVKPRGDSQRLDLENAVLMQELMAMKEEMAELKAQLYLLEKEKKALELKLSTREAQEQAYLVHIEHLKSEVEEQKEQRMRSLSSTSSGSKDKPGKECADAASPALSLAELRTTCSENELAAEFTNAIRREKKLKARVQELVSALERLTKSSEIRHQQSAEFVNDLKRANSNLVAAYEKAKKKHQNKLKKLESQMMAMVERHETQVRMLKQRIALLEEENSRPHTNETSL
# [2] = molecular target: T2, hMCC-SBP-6×His (human MCC isoform 1 with a C-terminal SBP-6×His tag) (human) (UniProt P23508); experiment: as above
# T2 sequence: T1 sequence
Substance,binding [1],binding [2]
VDAC (human (endogenous in 8226)),no binding,no binding
PP2A (human (endogenous in 8226)),no binding,no binding

# Source: article PMC4172902
